Source: paper PMC12819326
No constants are given. Whether binding was seen depends on the method and setting. In cells and extracts the contact can be indirect. Some results given as binding are weak or reduced against the parent protein; the word gives no strength.

T1: ASC (mouse (endogenous in MPC-5)), Q9EPB4
T1 chain: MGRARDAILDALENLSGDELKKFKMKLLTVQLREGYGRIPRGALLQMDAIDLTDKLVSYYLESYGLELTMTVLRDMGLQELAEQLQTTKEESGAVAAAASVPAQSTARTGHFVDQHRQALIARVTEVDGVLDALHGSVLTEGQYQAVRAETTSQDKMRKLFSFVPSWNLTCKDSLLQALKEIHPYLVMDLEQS


Molecular target: T1, ASC (mouse (endogenous in MPC-5)), …
Test: co-IP; lysates of MPC-5 podocytes stimulated with immune complexes (ICs), with or without low-dose Hyperoside; immunoprecipitated with anti-ASC antibody, immunoblotting for the partner; input and IgG as controls
Settings: remark: other sources report otherwise

Binder | binding
caspase-8, O89110 1-480 (protein) MDFQSCLYAIAEELGSEDLAALKFLCLDYIPHKKQETIEDAQKLFLRLREKGMLEEGNLSFLKELLFHISRWDLLVNFLDCNREEMVRELRDPDNAQISPYRVMLFKLSEEVSELELRSFKFLLNNEIPKCKLEDDLSLLEIFVEMEKRTMLAENNLETLKSICDQVNKSLLGKIEDYERSSTERRMSLEGREELPPSVLDEMSLKMAELCDSPREQDSESRTSDKVYQMKNKPRGYCLIINNHDFSKAREDITQLRKMKDRKGTDCDKEALSKTFKELHFEIVSYDDCTANEIHEILEGYQSADHKNKDCFICCILSHGDKGVVYGTDGKEASIYDLTSYFTGSKCPSLSGKPKIFFIQACQGSNFQKGVPDEAGFEQQNHTLEVDSSSHKNYIPDEADFLLGMATVKNCVSYRDPVNGTWYIQSLCQSLRERCPQGDDILSILTGVNYDVSNKDDRRNKGKQMPQPTFTLRKKLFFPP | binds
RIPK3, Q9QZL0 1-486 (protein) MSSVKLWPTGASAVPLVSREELKKLEFVGKGGFGVVFRAHHRTWNHDVAVKIVNSKKISWEVKAMVNLRNENVLLLLGVTEDLQWDFVSGQALVTRFMENGSLAGLLQPECPRPWPLLCRLLQEVVLGMCYLHSLNPPLLHRDLKPSNILLDPELHAKLADFGLSTFQGGSQSGSGSGSGSRDSGGTLAYLDPELLFDVNLKASKASDVYSFGILVWAVLAGREAELVDKTSLIRETVCDRQSRPPLTELPPGSPETPGLEKLKELMIHCWGSQSENRPSFQDCEPKTNEVYNLVKDKVDAAVSEVKHYLSQHRSSGRNLSAREPSQRGTEMDCPRETMVSKMLDRLHLEEPSGPVPGKCPERQAQDTSVGPATPARTSSDPVAGTPQIPHTLPFRGTTPGPVFTETPGPHPQRNQGDGRHGTPWYPWTPPNPMTGPPALVFNNCSEVQIGNYNSLVAPPRTTASSSAKYDQAQFGRGRGWQPFHK | binds
